No constants are given. Whether binding was seen depends on the method and setting. In cells and extracts the contact can be indirect. Some results given as binding are weak or reduced against the parent protein; the word gives no strength. Where a sequence is shown, tags or fusion partners need not be part of it.
T1: Flag-TRIM35 (tripartite motif 35) (UniProt Q9UPQ4)
T1 sequence: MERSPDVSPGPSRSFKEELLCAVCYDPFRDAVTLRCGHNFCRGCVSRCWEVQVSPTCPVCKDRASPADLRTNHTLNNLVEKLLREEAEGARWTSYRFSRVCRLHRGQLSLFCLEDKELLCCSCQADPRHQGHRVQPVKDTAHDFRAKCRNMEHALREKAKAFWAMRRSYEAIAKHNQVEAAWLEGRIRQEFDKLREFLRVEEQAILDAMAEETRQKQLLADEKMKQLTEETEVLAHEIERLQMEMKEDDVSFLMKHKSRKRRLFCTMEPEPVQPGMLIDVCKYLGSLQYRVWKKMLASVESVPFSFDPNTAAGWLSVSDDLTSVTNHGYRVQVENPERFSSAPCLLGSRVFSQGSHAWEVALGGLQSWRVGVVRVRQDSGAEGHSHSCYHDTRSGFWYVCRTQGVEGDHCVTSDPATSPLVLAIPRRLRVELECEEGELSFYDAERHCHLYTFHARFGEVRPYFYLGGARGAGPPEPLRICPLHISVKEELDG

T2: GST-TRIM35 fusion protein (UniProt Q9UPQ4)
T2 sequence: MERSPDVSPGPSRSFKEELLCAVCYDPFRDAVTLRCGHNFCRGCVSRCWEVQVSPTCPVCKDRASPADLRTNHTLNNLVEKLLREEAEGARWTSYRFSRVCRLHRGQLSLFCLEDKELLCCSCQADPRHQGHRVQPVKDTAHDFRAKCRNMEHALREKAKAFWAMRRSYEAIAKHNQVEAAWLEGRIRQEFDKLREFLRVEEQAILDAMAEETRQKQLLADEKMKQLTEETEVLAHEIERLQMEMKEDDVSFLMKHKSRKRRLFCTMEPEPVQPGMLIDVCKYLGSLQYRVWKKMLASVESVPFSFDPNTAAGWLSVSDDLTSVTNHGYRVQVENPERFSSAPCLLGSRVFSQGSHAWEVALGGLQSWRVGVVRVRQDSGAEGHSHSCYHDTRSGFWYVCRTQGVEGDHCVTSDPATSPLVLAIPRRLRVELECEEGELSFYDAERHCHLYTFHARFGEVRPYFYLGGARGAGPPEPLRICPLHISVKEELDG


Legend:
[1] = molecular target: T1, Flag-TRIM35 (tripartite motif 35); test: co-IP; HUVEC transfected with Flag-TRIM35 and HA-RelB; lysates incubated with anti-Flag or anti-HA conjugated magnetic beads overnight at 4 °C; washed with IP lysis buffer (50mM Tris pH 7.5, 150mM NaCl, 1mM EDTA, 0.1% NP-40); Western blotting
[2] = molecular target: T2, GST-TRIM35 fusion protein; test: pull-down; GST pull-down: purified GST-TRIM35 incubated with cell lysate containing His-RelB and GST-beads; the methods say His-RelB from 293FT lysate was enriched on His-tag beads, which were then incubated with recombinant GST-TRIM35 at room temperature for 1 h; immunoblotting; only the target purified

Binder	binding [1]	binding [2]
HA-RelB (protein, UniProt Q01201 1-579) MLRSGPASGPSVPTGRAMPSRRVARPPAAPELGALGSPDLSSLSLAVSRSTDELEIIDEYIKENGFGLDGGQPGPGEGLPRLVSRGAASLSTVTLGPVAPPATPPPWGCPLGRLVSPAPGPGPQPHLVITEQPKQRGMRFRYECEGRSAGSILGESSTEASKTLPAIELRDCGGLREVEVTACLVWKDWPHRVHPHSLVGKDCTDGICRVRLRPHVSPRHSFNNLGIQCVRKKEIEAAIERKIQLGIDPYNAGSLKNHQEVDMNVVRICFQASYRDQQGQMRRMDPVLSEPVYDKKSTNTSELRICRINKESGPCTGGEELYLLCDKVQKEDISVVFSRASWEGRADFSQADVHRQIAIVFKTPPYEDLEIVEPVTVNVFLQRLTDGVCSEPLPFTYLPRDHDSYGVDKKRKRGMPDVLGELNSSDPHGIESKRRKKKPAILDHFLPNHGSGPFLPPSALLPDPDFFSGTVSLPGLEPPGGPDLLDDGFAYDPTAPTLFTMLDLLPPAPPHASAVVCSGGAGAVVGETPGPEPLTLDSYQAPGPGDGGTASLVGSNMFPNHYREAAFGGGLLSPGPEAT	binds	
His-RelB (protein, UniProt Q01201 1-579) MLRSGPASGPSVPTGRAMPSRRVARPPAAPELGALGSPDLSSLSLAVSRSTDELEIIDEYIKENGFGLDGGQPGPGEGLPRLVSRGAASLSTVTLGPVAPPATPPPWGCPLGRLVSPAPGPGPQPHLVITEQPKQRGMRFRYECEGRSAGSILGESSTEASKTLPAIELRDCGGLREVEVTACLVWKDWPHRVHPHSLVGKDCTDGICRVRLRPHVSPRHSFNNLGIQCVRKKEIEAAIERKIQLGIDPYNAGSLKNHQEVDMNVVRICFQASYRDQQGQMRRMDPVLSEPVYDKKSTNTSELRICRINKESGPCTGGEELYLLCDKVQKEDISVVFSRASWEGRADFSQADVHRQIAIVFKTPPYEDLEIVEPVTVNVFLQRLTDGVCSEPLPFTYLPRDHDSYGVDKKRKRGMPDVLGELNSSDPHGIESKRRKKKPAILDHFLPNHGSGPFLPPSALLPDPDFFSGTVSLPGLEPPGGPDLLDDGFAYDPTAPTLFTMLDLLPPAPPHASAVVCSGGAGAVVGETPGPEPLTLDSYQAPGPGDGGTASLVGSNMFPNHYREAAFGGGLLSPGPEAT		binds
